# No constants are given. Whether binding was seen depends on the method and setting. Binding seen in cells or lysates may run through a third protein. Binding calls can cover weak binding; strength is not graded here.
# Chains of the proteins cited; added tags and fusions are not shown. Lines headed by an entry give the natural chain unless they say otherwise; changes in a name come on top.
# UniProt P53327: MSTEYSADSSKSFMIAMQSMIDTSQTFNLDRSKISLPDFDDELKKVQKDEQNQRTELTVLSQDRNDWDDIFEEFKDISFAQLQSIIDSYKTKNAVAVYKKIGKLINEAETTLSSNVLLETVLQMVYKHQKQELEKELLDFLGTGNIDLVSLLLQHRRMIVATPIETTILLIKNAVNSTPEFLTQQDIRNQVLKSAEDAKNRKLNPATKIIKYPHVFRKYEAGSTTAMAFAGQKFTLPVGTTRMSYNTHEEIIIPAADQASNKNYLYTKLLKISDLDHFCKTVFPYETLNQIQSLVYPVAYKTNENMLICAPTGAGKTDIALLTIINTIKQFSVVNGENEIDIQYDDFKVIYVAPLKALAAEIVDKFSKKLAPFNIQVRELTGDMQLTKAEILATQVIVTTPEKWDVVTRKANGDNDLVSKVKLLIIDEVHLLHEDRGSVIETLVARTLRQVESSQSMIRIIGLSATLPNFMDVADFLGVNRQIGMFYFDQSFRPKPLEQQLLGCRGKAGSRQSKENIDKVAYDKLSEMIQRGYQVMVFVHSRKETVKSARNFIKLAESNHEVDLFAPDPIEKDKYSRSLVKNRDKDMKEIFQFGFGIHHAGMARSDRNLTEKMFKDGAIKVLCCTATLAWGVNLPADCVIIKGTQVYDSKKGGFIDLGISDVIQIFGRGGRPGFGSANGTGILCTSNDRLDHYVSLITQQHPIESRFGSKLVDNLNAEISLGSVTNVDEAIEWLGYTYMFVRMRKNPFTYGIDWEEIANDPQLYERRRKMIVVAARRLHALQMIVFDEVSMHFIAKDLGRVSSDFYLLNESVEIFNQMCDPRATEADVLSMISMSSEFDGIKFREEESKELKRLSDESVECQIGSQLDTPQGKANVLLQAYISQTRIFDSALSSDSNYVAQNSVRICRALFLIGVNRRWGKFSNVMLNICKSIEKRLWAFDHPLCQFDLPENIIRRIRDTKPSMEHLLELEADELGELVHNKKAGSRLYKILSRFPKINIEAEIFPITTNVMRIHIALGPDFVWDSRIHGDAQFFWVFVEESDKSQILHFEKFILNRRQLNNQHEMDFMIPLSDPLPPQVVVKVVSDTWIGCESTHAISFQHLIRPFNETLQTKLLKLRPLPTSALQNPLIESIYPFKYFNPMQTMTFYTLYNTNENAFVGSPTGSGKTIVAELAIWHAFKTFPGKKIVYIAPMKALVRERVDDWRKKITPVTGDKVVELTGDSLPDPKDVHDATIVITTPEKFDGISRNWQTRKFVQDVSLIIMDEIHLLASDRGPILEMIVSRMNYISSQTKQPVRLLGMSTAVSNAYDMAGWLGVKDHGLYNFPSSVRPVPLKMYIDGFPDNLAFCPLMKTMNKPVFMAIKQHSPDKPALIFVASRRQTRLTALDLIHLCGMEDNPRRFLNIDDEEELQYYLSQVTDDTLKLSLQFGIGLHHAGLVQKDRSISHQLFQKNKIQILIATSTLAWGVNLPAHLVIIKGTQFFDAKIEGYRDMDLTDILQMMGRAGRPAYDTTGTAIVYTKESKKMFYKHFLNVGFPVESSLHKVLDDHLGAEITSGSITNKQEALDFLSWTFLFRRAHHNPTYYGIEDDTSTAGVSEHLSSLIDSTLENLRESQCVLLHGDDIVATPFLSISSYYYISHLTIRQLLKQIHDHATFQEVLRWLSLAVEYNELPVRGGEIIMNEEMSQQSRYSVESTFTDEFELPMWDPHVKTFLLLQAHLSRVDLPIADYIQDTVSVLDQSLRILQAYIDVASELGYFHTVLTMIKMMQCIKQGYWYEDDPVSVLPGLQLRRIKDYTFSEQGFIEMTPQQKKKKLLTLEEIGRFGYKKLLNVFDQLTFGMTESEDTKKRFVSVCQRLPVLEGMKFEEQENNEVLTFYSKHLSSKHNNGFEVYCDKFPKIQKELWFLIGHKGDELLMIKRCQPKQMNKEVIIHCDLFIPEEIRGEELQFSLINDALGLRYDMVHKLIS
# UniProt P53137: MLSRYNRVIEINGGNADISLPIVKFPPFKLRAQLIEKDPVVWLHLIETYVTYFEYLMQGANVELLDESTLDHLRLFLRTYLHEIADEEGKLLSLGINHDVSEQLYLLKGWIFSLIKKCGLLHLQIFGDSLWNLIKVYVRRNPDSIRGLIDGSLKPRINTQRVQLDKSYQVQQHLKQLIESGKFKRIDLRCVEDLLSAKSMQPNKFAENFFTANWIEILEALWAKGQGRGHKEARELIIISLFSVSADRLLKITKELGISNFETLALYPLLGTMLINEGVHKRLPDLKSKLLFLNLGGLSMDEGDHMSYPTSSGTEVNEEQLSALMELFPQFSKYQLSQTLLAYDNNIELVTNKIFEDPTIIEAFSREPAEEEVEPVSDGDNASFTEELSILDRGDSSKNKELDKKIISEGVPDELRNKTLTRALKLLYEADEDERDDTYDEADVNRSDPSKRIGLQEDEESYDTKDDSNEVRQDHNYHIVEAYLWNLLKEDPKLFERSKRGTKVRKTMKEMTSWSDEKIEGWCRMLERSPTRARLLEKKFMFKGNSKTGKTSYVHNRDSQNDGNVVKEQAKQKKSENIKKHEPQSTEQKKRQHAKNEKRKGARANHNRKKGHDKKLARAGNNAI
# Target: Slh1-Flag-TEV-protein A (S. cerevisiae) (UniProt P53327)
# Assay: pull-down; RQT factors or mutants co-expressed in yeast; complex captured from the lysate via Slh1-Flag-TEV-protein A on IgG beads in RQT-R buffer (50 mM Tris pH 7.5, 100 mM NaCl, 2.5 mM MgCl2, 0.1% NP-40, 10% glycerol, 100 mM L-arginine); co-purified factors seen by CBB staining or anti-Flag blot
substance,measurement,value
CUE domain-deleted mutant of Cue3 (Flag-tagged) (from UniProt P53137),binding,binds
